# Over roughly 33,000 sequences, “E-score (-0.5 to 0.5)” has its median near -8e-05; the highest 2% begin near 0.23. The list shows a part of the results.
# Target: T1, Nrg2 (UniProt P38082)
# T1 sequence: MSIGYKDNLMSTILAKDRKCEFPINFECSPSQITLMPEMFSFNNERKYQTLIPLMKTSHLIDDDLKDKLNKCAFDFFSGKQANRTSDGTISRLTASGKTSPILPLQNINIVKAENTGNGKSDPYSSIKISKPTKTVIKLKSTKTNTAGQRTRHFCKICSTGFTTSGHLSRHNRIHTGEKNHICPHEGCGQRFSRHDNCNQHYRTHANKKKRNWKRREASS
# Assay: PBM E-score (8-mer binding enrichment) (E-score (-0.5 to 0.5)); higher = stronger / more preferred TF binding
# Conditions: protein concentration: 100 nM; construct: GST-full length
# Description: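 Universal 'all 10-mer' protein binding microarrays (Agilent AMADID 015681) probed with GST-tagged S. cerevisiae TFs (full-length or DBD) made by in vitro transcription/translation (PURExpress), about 100-200 nM. Bound TF was detected with fluorescent anti-GST. Each ungapped 8-mer (which stands for itself and its reverse complement) is scored by the PBM enrichment score (E-score), a modified Wilcoxon-Mann-Whitney statistic from -0.5 to +0.5, computed with the Universal PBM Analysis Suite. Scale: above 0.35 generally sequence-specific binding.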
row,Sequence,PBM E-score
1,CCTGCCAA,-0.0911
2,CTACTTGC,0.141
3,AGAGGACG,-0.0944
4,GGGTGGGA,0.0375
5,CTGGATCC,0.0805
6,AGAAGGCG,0.00579
7,GAACTCTC,0.0328
8,AATACGGT,-0.079
9,GATCCTTA,-0.08
10,ACACGCAT,-0.0457
11,CACCAAAC,0.121
12,ATGCGCTG,-0.0147
13,ATTACTTG,0.212
14,GAGGAACA,0.109
15,CCCCCCAA,-0.399
16,CCCGTGGA,0.0285
17,GCGCCTAC,0.0178
18,CTGTGACC,-0.0102
19,CCGCCGTA,-0.119
20,AACCAGGA,0.00294
21,CCTAGACC,-0.0346
22,CTACCATA,0.1
23,GTGACCAC,-0.083
24,TAGCAAAA,-0.114

# 3 entries from above, bar-delimited:
row | Sequence | PBM E-score
1 | CCTGCCAA | -0.0911
2 | CTACTTGC | 0.141
3 | AGAGGACG | -0.0944

# The listing continues.

row,Sequence,PBM E-score
1,CGTGTAAA,-0.101
2,AAAAGCTC,-0.0693
3,CGCCACGC,-0.113
4,CCTTGGTC,-0.0147
5,CTATAGAG,-0.162
6,AACTCTAT,0.0268
7,AAATTCGT,0.235
8,CTAGTCTA,-0.122
9,TCCCTGAA,0.25
10,AATCTTTA,-0.0709
11,ACTACTAA,-0.00741
12,CCCGGTAA,-0.174
13,ACCAGTTG,0.0529
14,CTACCCCA,0.117
15,ACCGCTCT,-0.0258
16,AGCAGCGG,-0.0933
17,CTGATCTA,0.00323
18,GTGCTGTA,-0.0149
19,CGCTTGTC,0.0621
20,GAGACCGC,-0.171
21,CATGAATC,0.115
22,CCAGCATC,-0.0646
23,AATCGTAA,0.081
24,TACCCGGA,-0.04

row,Sequence,PBM E-score
1,CCGAGTCA,-0.161
2,GATAAAAC,0.103
3,AGTCAGCC,-0.152
4,CCAATGGC,0.0147
5,CACCAAAA,0.103
6,AGGAGTGG,-0.245
7,CACTAGGC,-0.0913
8,ACCAGGGC,-0.0495
9,ATCGGTAG,-0.11
10,TAAGGGCA,0.122
11,CAATCATA,0.177
12,TCTGGTCA,-0.0626
13,ATTCAAGC,0.149
14,ACTACGGA,-0.108
15,AACACTGC,0.154
16,ATAAAGAA,0.137
17,ACTATTAG,0.0208
18,CATGTAAA,-0.163
19,ACTCCGAA,-0.141
20,AAAAGGTA,-0.0612
21,GGAAGACA,-0.154
22,AATACCAT,0.115
23,TAGTCATA,-0.0609
24,CAAATGAA,-0.0303

# In a second layout: entries from further up
row	Sequence	PBM E-score
5	CTATAGAG	-0.162
6	AACTCTAT	0.0268

# Continuation:

row,Sequence,PBM E-score
1,TCCCCCCA,-0.398
2,CCCGCAGA,0.199
3,ATGCGAGG,0.137
4,GCGGTTTA,0.0652
5,ATGCGATA,0.0273
6,AATCCTAG,0.0124
7,GCCTTGAA,-0.263
8,TCTACACA,-0.0612
9,AAAACCCC,0.0161
10,ATAGTTTG,0.124
11,AAGTTCCA,-0.106
12,CAAGGGCC,0.0335
13,AGCCACGC,-0.185
14,AAATTGCC,0.0773
15,TAAAGTTA,0.147
16,GAGGCTCC,-0.161
17,CCGCGACC,-0.0745
18,CCCGGTCG,-0.108
19,ATGGCTCC,-0.0998
20,AAACGTTC,0.073
21,GGACGACC,-0.00798
22,CAGCAACG,0.251

# From the supplement of paper PMC3334620
